# Laboratory results from the supplement of paper PMC3334620.
# Whole data set: some 33,000 sequences, median “E-score (-0.5 to 0.5)” near -0.0059, cut for the highest 2% near 0.26. The list shows a part of the results.
# Target: T1, Cin5 (UniProt P40917)
# T1 sequence: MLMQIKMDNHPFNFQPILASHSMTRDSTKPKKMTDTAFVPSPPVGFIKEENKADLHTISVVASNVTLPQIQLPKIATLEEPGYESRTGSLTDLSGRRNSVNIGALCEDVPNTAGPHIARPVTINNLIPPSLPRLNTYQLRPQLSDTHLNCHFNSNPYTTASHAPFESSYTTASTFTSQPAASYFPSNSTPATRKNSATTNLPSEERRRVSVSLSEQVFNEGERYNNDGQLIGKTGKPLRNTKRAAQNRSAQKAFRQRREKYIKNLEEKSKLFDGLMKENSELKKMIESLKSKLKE
# Assay: PBM E-score (8-mer binding enrichment) (E-score (-0.5 to 0.5)); higher = stronger / more preferred TF binding
# Conditions: protein concentration: 100 nM; construct: GST-full length
# Outline: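 Detection of bound protein used fluorescent anti-GST, with scans normalised by masliner. The proteins were GST-tagged yeast transcription factors applied at about 100-200 nM to universal all-10-mer Agilent arrays made double-stranded by primer extension. Each ungapped eight-base word, pooled with its reverse complement, was scored with an E-score from the Universal PBM Analysis Suite.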
row,Sequence,PBM E-score
1,ATAATGGC,0.195
2,CAGTCCCA,-0.148
3,AATGCTCC,-0.064
4,CAACCTAG,-0.133
5,AGCCTGGG,-0.2
6,AAAGCATT,0.0405
7,CCATGCAA,0.132
8,ACTGGCTG,-0.0522
9,GCGACTAC,-0.0223
10,ACAACTCC,0.0848
11,AACCCAGT,-0.0374
12,GGGGGACC,-0.391
13,CGATCTAA,0.178
14,AAGGTGTA,-0.0871
15,CACTGCCA,-0.0785
16,CAAATCCG,0.0844
17,CAATGGTC,0.0916
18,AAGGGAAG,-0.0754
19,AGAATACG,-0.0156
20,CTTGGTCC,-0.149
21,CACAACAG,-0.185
22,GAACACAC,-0.041
23,AACCGGGA,-0.146
24,CAGCAGGA,-0.0169

row,Sequence,PBM E-score
1,AAAGGTTC,-0.023
2,TCAGTGCA,-0.0765
3,CCGGCAGA,-0.212
4,CGGCGATC,-0.0399
5,GCGCCGGA,-0.117
6,GCTTAACA,0.0285
7,ATCGAGCC,-0.104
8,CGGCCCCA,-0.255
9,CTCACATA,0.164
10,TAGTGGAA,0.0595
11,TCGGTGCA,-0.0208
12,CATGCATA,0.0554
13,TGAAGGCA,0.0551
14,GTGCAGAA,-0.118
15,AGATTAGC,0.028
16,AGAGACAG,-0.0862
17,AACTCCAC,0.00478
18,AAGGTCAA,-0.088
19,GCAGAGCA,-0.217
20,CTTGCGAC,-0.128
21,GAGTCCTA,-0.254
22,ATAGGGTA,0.126
23,CTAGGATC,-0.139
24,ATTTGGAA,0.125

row,Sequence,PBM E-score
1,TAATTCCA,0.102
2,GACCAGGC,-0.142
3,ACGCTTAT,0.101
4,CAATAGTA,0.194
5,AAGTACTC,0.0253
6,AAATCCAG,0.13
7,GTTCGTAA,0.153
8,GTTGTCCA,0.143
9,AGAATGAT,0.182
10,CTTTAGTA,-0.00776
11,AGCTGTGA,0.0708
12,CCAACCGC,0.0876
13,AAATCCCA,0.0247
14,GGTGGCTA,-0.0602
15,TCCGCCCA,-0.00394
16,TAGGTATA,0.167
17,AAATATGC,0.0156
18,CCGTATTA,0.134
19,GAATGGAC,-0.0316
20,TTCTACAA,0.0644
21,GTTGCAGA,0.00874
22,TCCCTTAA,-0.186
23,AAGATTAT,0.239
24,CCGGGTCC,-0.303

row,Sequence,PBM E-score
1,TAATACAA,0.232
2,GATTATTA,0.316
3,AATTTAGA,0.0855
4,CCGCTGTA,0.0177
5,CGCCCACG,-0.11
6,CAATCGCA,0.13
7,ACGACTCA,-0.118
8,ATGGGCCG,-0.137
9,TTAATTAA,0.183
10,GTCACTTA,0.113
11,GACGCATC,0.00795
12,CGCCTAGA,-0.1
13,CATAGGCA,-0.0176
14,TCCCCGAA,-0.0728
15,GGTCCTAA,-0.143
16,GGGAAGTA,0.0697
17,ATGGTGTC,0.0539
18,ACGATTCC,-0.00185
19,CAATGGGA,-0.0693
20,GTTATTGA,0.0972
21,ATGGTATC,0.188
22,ATTCGTCA,0.127

# Fetched one by one from the entries so far:
row,Sequence,PBM E-score
6,AAATCCAG,0.13
3,CCGGCAGA,-0.212
1,ATAATGGC,0.195
18,AAGGTCAA,-0.088
22,ATAGGGTA,0.126
9,CTCACATA,0.164
